Reference: PubChem BioAssay AID1671195 (Yale University, 2021)
This is a random part of about 22,000 reagents tested. About 1,510 of them (6.9%) count as active. 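Active includes knockdowns raising or lowering LDL uptake; positive z-scores mean more uptake, negative mean less.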 A number with no mark means an inactive call.

Screen: 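Genes whose knockdown alters LDL uptake in liver cancer cells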 (primary screen)
Cell system: human Huh7 hepatoma cells
Knock-down reagent: siRNA pool against human genes, 18 nM
Timing: about 2 to 2.5 days of knockdown, then 8 h LDL uptake
Challenge: DiI-labelled LDL at 30 µg/ml for 8 h, in lipoprotein-deficient serum medium
Measurement: 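Per-cell DiI-LDL intensity by automated imaging; well means scaled to the plate median and given as a robust z-score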
Scale: robust z-score: higher = more LDL uptake after knockdown
Active means: 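Active when two or more replicates show a robust z-score above 2 or below -2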

gene knocked down	robust z-score, replicate 1	robust z-score, replicate 2	robust z-score, replicate 3
CENPW	-0.99	-0.636	-0.483
HTR3E	-0.856	-0.675	-1.21
HHATL	0.0361	0.7	-0.0901
PFDN6	-2.18	-1.07	-1.88
MAGEA4	-1.03	-0.0142	-0.705
UBIAD1	-1	-0.335	-2.79
NUDT9	-0.761	-0.641	-0.523
SERPINC1	-1.1	-1.02	0.861
GABARAPL1	2.36	1.64	1.32
KLHL13	0.000542	0.253	0.882
LOC441404 (retired record)	0.318	0.499	0.5
ZNF30	-0.304	0.163	-0.0459
KAT2B	-0.503	-0.706	-0.196
GPR151	1.17	0.1	0.941
TEC	0.584	-0.394	0.3
TWF2	-0.572	0.0688	-0.257
SARAF	0.916	2.01	-0.223
IL13	0.537	1.08	2.79
POR	-2.3 (active)	-1.64	-2.22
OR6M1	-1.3	-1.29	-1.45
LPL	-0.0859	-0.000347	0.201
ZNF355P	-0.172	0.0827	-0.27
KLHL34	1.94	2.37	1.99
SPTAN1	0.972 (active)	2.8	2.95
TECRL	-1.39	-1.24	-1.19
RPL23AP43	-0.405	-0.65	-0.472
TPD52L2	-0.289	0.523	0.355
NR2F1-AS1	-0.698	-1.06	-1
LRIT2	-1.45	-1.47	-1.47
GPN1	0.314	0.172	0.588
RAP1A	-0.692	-0.766	0.499
SMAD7	-1.31	-1.01	-1.25
H2BP3	-1.41	-1.36	-1.39
TPM3P9	-0.734	0.194	-0.628
ATP2B2	0.29	-0.0603	0.37
HDDC2	2.53 (active)	2.57	-1.15
TRAPPC9	-1.62	-1.62	-1.96
GALNT6	-0.589	1.57	-0.142
SGCZ	-1.1	-0.0483	-0.131
TXNDC17	-0.368	-0.897	-0.818
NT5C2	0.747	0.723	1.66
SIAE	2.16 (active)	3.41	3.09
OR4D11	-0.238	-0.287	-0.588
DEFB125	0.472	0.582	-0.0122

Taken from above.
RPL23AP43, robust z-score, replicate 1 = -0.405
SPTAN1, robust z-score, replicate 3 = 2.95 (active)
Value for UBIAD1 in “robust z-score, replicate 1”: -1
Under “robust z-score, replicate 1”, TRAPPC9 shows -1.62
Under “robust z-score, replicate 1”, TECRL has -1.39
Under “robust z-score, replicate 2”, MAGEA4 shows -0.0142

Continued:
gene knocked down	robust z-score, replicate 1	robust z-score, replicate 2	robust z-score, replicate 3
PSCA	-0.507	-0.856	-0.503
TMEM126A	0.176	1.53	0.774
RBP4	-0.725	-0.496	-0.791
INHBA	1.83	0.58	0.791
LINC00315	-1.91	-1.79	-1.58
POLR1G	-1.56	-1.53	-1.53
MARCHF5	-0.677	0.605	-0.521
MMP21	-0.476	-0.203	1.21
SNRNP70	1.57	1.77	1.43
SLC16A3	-1.39	-1.11	-0.966
PLCB1	-2.26 (active)	-2.06	-1.63
KTI12	0.12	0.418	0.00716
ENAH	0.973	1.98	-0.0849
PRORP	0.206	2.5	0.118
XRCC6P2	-0.21	-0.525	-0.4
OR52L1	-2.04 (active)	-2.15	-2.31
RPS12P23	-0.942	-1.15	-1.09
DOCK4	0.453	0.345	-0.983
ARSJ	-2.07	-1.74	-1.76
SPCS2P1	0.196	0.923	0.521
ZNF235	-0.108	-0.444	-0.505
RCBTB2	-0.0644	-0.463	0.0525
LOC400263 (retired record)	-0.851	-0.737	-0.838
CD27	0.528	0.374	0.556
GHR	0.849	1	0.997
NPY4R	-1.64	-1.31	-1.63
POLR3E	1.31	2.14	1.47
NDUFV1	-1.1	-0.558	-0.7
ITIH4	-0.447	-1.97	-1.56
SKIDA1	-0.348	-0.177	-0.238
NR2C2AP	0.761	1.64	1.2
MRPL12	-0.474	0.961	2.15
NUFIP1	1.07	1.06	-0.149
OR13A1	-0.532	-0.572	-0.67
UTP14C	1.39	0.75	-0.36
FHIP2A	0.802	1.6	1.74
TRIM67	0.226	0.598	1.14
IGBP1	-0.261	-0.0441	-0.107
ZNF680	-0.431	-0.457	-0.585
NAT10	1.67	0.947	1.26
ATP5F1A	-0.564	-0.762	-0.515
LOC392791 (retired record)	0.691	1.18	0.982
ZNF296	-1.04	-0.79	-0.822
